The record followed here is the supplement of paper PMC10849652.

By UniProt entry, the sequences of proteins in these tests, tags left out. Where a name states a change or a piece, a line headed by the entry shows the natural chain unless it says otherwise.
UniProt Q8N3X6: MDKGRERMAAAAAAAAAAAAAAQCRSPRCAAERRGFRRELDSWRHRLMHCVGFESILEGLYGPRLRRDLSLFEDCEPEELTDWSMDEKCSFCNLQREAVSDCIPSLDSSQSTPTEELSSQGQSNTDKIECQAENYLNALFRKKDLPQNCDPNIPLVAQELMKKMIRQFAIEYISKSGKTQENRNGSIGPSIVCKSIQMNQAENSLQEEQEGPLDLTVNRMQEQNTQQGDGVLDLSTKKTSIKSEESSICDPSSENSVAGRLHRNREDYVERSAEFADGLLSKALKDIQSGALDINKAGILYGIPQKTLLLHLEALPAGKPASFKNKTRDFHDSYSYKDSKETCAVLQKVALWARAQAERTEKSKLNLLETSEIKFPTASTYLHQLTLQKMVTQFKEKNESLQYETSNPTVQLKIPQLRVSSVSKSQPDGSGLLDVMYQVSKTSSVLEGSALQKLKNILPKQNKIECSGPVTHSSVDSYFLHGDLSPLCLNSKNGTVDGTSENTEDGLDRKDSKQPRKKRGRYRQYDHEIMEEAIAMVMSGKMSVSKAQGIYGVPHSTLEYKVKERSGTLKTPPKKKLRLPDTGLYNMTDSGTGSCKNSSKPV
UniProt Q9BU23: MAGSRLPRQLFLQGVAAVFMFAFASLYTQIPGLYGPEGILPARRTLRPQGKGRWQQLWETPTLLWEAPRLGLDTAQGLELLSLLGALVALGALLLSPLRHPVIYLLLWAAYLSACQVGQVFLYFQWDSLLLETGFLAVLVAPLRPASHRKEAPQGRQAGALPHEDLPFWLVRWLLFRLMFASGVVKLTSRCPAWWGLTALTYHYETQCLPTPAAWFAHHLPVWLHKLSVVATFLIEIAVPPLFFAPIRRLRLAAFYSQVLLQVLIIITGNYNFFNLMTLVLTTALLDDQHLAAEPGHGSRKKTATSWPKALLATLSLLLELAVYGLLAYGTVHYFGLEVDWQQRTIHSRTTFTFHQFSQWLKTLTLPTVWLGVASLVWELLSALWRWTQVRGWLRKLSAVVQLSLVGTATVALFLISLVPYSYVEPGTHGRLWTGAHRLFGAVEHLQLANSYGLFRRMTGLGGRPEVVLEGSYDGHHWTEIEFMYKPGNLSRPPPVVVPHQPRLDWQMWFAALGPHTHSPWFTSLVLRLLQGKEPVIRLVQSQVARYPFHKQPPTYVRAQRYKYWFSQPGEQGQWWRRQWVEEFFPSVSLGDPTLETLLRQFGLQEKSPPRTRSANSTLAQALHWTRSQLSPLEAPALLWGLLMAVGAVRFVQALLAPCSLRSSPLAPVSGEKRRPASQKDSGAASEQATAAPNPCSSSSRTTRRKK
UniProt Q8WVP7: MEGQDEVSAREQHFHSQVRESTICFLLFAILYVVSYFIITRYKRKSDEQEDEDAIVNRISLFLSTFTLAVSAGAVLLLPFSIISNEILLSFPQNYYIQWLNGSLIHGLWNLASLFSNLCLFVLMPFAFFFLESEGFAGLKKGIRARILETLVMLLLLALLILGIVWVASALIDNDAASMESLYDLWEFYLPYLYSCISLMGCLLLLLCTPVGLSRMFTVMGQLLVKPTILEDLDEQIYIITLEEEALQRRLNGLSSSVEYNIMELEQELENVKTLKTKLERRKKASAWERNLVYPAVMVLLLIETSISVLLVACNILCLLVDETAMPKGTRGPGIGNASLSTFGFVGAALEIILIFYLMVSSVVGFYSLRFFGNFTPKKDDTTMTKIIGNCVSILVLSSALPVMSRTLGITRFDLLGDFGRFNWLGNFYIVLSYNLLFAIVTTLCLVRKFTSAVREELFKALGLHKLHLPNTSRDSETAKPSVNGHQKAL
UniProt Q6NSJ5: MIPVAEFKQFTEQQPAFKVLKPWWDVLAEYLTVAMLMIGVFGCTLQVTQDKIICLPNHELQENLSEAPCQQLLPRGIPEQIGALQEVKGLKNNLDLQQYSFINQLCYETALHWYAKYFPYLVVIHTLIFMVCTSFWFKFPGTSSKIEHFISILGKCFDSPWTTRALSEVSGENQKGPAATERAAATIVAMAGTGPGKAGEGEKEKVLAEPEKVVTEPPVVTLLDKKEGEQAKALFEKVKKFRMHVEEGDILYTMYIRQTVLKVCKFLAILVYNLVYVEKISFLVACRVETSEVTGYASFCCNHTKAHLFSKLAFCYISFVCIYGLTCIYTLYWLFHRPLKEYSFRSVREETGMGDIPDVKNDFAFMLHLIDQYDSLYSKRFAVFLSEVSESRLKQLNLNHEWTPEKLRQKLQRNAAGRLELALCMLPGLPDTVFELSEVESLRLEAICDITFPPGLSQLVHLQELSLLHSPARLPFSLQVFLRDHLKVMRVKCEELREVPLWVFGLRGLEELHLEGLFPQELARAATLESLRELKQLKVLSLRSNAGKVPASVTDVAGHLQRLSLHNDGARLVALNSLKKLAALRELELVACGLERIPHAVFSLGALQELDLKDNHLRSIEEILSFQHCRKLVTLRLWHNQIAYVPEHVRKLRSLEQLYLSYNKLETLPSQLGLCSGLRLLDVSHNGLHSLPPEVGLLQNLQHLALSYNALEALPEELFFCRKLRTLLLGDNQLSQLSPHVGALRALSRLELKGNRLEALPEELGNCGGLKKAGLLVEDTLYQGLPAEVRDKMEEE
UniProt O95835: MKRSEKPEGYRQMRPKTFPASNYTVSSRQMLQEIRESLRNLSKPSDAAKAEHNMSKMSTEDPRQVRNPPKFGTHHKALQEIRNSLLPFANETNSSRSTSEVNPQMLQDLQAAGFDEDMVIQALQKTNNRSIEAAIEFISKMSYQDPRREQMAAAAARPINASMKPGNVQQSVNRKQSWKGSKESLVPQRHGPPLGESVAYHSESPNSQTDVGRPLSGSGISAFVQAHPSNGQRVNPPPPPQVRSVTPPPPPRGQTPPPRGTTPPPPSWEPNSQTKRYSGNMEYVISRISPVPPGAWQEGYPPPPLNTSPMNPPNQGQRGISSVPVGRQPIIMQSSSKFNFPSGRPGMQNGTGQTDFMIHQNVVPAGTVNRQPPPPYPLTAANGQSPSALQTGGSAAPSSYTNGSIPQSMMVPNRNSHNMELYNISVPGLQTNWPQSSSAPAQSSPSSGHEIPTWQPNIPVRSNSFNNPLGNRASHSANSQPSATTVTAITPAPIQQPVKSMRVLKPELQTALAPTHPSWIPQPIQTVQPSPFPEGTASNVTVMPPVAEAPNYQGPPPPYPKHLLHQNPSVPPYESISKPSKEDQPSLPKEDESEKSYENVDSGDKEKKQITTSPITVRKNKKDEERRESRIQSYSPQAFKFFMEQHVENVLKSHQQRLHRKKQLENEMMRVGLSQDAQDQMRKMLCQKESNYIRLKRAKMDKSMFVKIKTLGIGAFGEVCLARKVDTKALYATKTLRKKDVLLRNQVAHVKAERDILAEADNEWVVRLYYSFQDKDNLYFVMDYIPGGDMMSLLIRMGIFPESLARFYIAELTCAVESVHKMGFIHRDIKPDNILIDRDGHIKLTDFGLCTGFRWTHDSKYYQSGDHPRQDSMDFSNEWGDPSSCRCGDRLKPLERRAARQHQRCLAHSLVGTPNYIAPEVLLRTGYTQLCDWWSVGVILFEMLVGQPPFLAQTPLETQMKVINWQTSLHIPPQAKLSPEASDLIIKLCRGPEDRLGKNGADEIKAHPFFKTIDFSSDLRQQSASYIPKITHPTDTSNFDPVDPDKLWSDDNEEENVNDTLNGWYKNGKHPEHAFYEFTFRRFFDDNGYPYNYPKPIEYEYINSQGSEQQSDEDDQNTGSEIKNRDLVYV
UniProt Q92604: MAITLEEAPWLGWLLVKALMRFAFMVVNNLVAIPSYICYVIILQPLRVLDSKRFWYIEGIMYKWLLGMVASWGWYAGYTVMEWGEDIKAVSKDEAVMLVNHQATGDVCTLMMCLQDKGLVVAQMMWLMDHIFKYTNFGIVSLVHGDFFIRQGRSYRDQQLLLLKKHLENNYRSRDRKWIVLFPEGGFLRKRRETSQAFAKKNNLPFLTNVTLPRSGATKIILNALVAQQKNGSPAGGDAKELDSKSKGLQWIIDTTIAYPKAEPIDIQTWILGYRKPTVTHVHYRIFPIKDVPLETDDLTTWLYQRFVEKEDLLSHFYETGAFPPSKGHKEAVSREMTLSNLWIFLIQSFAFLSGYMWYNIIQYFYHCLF
UniProt Q86X29: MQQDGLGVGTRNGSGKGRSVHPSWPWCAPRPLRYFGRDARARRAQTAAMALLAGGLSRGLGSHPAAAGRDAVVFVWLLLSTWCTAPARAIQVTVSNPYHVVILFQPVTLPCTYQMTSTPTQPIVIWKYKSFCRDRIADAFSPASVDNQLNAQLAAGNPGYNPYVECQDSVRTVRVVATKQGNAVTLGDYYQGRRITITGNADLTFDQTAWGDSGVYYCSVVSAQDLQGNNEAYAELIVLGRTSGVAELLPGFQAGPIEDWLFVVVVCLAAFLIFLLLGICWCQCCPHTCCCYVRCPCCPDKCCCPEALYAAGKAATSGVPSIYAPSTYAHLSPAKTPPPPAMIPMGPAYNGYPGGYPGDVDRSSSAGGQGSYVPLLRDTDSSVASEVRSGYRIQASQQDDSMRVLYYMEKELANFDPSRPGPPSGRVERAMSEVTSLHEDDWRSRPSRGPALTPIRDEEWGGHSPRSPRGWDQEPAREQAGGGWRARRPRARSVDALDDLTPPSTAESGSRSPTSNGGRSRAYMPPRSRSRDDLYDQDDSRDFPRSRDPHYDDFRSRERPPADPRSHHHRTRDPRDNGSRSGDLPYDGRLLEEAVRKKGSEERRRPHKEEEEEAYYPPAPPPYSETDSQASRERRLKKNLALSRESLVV
UniProt Q9UJU2, whole entry, looked up: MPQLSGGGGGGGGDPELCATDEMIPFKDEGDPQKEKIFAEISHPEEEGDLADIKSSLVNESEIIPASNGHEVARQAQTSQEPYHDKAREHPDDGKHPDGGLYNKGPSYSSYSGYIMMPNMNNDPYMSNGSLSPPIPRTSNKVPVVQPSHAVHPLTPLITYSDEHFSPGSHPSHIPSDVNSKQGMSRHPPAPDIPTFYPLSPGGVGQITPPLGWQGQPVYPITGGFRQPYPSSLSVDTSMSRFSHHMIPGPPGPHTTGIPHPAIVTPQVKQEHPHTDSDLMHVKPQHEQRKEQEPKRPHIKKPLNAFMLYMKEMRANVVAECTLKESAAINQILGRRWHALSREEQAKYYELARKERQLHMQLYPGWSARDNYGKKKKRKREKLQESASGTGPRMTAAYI
UniProt Q6ZRR7: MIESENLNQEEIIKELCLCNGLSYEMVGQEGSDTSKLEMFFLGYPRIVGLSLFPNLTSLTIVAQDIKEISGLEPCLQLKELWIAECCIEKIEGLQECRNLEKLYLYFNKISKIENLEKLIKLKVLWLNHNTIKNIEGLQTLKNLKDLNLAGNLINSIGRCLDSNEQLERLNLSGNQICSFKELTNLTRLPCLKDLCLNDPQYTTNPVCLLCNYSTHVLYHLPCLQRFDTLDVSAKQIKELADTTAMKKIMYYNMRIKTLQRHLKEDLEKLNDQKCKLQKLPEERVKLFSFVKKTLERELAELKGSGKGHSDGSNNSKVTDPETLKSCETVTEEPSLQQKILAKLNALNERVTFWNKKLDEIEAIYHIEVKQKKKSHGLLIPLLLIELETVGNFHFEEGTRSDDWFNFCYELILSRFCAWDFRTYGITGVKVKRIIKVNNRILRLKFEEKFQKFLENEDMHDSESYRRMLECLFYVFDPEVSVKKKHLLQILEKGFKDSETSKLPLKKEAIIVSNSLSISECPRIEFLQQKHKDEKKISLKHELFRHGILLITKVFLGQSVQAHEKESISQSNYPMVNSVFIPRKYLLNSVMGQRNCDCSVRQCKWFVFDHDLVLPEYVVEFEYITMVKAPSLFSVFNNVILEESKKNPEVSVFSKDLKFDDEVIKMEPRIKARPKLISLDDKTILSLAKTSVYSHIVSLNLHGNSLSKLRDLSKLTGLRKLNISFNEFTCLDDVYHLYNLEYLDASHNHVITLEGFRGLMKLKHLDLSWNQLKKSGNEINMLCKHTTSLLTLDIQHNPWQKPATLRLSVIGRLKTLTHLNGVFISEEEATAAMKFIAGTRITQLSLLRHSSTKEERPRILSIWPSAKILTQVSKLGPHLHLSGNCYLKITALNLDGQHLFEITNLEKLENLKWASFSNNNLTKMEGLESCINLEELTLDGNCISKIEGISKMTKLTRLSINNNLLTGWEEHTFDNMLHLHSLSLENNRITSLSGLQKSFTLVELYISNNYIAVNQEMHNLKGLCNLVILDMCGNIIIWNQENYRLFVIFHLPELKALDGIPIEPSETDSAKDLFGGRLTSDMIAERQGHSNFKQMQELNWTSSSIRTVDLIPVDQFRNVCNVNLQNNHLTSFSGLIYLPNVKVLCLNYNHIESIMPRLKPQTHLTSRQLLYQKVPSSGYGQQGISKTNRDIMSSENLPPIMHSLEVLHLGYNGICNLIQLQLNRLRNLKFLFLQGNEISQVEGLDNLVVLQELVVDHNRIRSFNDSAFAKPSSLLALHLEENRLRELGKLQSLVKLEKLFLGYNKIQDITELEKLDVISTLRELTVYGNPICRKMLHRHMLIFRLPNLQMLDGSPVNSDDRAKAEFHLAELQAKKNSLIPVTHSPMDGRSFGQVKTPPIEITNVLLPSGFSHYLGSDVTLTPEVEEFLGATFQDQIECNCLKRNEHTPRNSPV

The other results are listed elsewhere or left out.

Compound in the test: Cc1cccc(CC(=O)N2CCc3c2ccc(-c2cn(C)c4ncnc(N)c24)c3F)n1
Nature of the test: log2 fold change, soluble protein after heating vs DMSO (PISA); higher = thermal stabilisation; K562 lysate, 10 uM; active = over 0.2 and 3.5 SD of the protein, either way, in both replicates (recomputed). In a few lines:
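Soluble protein was defined as the supernatant remaining after 21,000xg for 90 min, following pooling of heated aliquots and adjustment to 0.5% NP-40 at 4°C. Before that, crude K562 extract at 1 mg/mL protein in PBS pH 7.4 with 1 mM MgCl2 was treated with 10 μM compound for 30 min and heated for 3 min across 48°C-58°C. Quantification used TMTpro 16plex LC-MS/MS with channel sums equalised, and values are log-two fold changes in thermal stability relative to solvent controls from duplicates.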
Turning to LBH (UniProt Q53QV2), the log2 fold change is inactive: -0.114.
Then LONRF2 (UniProt Q1L5Z9), with inactive: -0.013.
With LCORL (UniProt Q8N3X6) the figure was inactive: 0.206; with LRP10 (UniProt Q7Z4F1), inactive: -0.089.
Then LMF2 (UniProt Q9BU23), with inactive: 0.169; and LMBR1 isoform 3 (UniProt Q8WVP7), with inactive: 0.143; and LIN28A (UniProt Q9H9Z2), with inactive: -0.118.
As for LRRC8E (UniProt Q6NSJ5), the log2 fold change was inactive: 0.307.
With LATS1 (UniProt O95835) the figure was inactive: 0.077; with LNX2 (UniProt Q8N448), inactive: 0.173; with LONP2 (UniProt Q86WA8), inactive: 0.045.
With LDHD (UniProt Q86WU2) the figure was inactive: 0.01.
With LRG1 (UniProt P02750), the log2 fold change is inactive: 0.054.
In the case of LPGAT1 (UniProt Q92604), the log2 fold change is inactive: -0.009.
Then LSR isoform 3 (UniProt Q86X29), with inactive: 0.04; and LSM11 (UniProt P83369), with inactive: -0.394.
Then LEF1 (UniProt Q9UJU2), with inactive: -0.267.
With LRRC42 (UniProt Q9Y546), the log2 fold change is inactive: -0.045.
With LDHA isoform 4 (UniProt P00338) the figure was inactive: 0.135.
Then LRRC9 (UniProt Q6ZRR7), with active: 0.694.
With LDLRAP1 (UniProt Q5SW96) the figure was inactive: -0.032.
